This assay has as its target GST-Sox2 (UniProt P48431). Description: pull-down.

The chains behind the UniProt entries cited, without tags or fusion partners.
UniProt P48431: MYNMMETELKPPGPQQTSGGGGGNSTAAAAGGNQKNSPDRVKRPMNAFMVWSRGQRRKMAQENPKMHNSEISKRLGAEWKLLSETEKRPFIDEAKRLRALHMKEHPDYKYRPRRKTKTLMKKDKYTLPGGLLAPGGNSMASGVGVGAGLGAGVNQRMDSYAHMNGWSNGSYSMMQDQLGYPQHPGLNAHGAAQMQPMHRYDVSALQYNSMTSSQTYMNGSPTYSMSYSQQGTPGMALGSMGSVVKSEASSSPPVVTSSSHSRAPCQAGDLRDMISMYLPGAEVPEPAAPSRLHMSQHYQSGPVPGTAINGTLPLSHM
UniProt Q3TKT4: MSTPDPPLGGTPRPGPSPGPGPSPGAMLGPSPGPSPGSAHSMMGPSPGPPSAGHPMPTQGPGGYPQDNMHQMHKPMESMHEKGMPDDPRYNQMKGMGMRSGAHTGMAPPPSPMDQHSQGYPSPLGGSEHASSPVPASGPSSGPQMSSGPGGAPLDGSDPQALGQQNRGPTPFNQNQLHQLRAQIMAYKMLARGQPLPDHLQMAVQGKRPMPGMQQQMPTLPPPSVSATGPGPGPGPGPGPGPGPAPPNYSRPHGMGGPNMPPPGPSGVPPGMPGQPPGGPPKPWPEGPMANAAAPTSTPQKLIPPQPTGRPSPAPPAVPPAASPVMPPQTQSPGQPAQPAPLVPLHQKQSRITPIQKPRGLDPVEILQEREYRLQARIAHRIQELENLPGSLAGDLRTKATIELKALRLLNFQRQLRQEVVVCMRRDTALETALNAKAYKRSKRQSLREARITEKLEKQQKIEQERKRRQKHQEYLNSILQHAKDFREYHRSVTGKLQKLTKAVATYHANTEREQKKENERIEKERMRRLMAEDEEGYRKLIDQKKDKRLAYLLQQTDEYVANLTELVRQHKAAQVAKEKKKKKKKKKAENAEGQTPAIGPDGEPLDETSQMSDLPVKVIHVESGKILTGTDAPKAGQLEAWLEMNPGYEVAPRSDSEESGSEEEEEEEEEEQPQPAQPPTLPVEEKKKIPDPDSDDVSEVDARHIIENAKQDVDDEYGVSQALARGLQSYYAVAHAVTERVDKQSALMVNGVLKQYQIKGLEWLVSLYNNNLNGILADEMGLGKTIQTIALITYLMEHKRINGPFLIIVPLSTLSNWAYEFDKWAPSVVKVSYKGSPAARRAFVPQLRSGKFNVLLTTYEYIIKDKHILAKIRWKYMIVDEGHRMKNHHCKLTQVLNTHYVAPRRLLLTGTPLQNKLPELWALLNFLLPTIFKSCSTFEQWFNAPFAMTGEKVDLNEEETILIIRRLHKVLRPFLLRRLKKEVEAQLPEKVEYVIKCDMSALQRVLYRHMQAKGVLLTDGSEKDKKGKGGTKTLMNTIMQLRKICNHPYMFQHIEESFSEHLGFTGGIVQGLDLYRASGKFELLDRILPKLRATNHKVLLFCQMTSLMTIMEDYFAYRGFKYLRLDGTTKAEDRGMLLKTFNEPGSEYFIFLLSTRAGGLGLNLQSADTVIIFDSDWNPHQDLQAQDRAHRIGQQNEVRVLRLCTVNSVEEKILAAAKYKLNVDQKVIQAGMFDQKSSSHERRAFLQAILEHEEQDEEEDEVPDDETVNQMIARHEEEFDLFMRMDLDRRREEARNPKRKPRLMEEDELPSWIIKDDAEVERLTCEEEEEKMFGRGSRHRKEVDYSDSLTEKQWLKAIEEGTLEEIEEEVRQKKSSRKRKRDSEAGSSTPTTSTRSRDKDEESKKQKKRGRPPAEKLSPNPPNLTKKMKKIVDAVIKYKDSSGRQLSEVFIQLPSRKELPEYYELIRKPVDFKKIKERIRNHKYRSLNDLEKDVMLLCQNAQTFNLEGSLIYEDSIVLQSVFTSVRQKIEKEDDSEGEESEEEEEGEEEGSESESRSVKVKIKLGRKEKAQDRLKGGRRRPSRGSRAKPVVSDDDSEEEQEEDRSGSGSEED

No constants are given. Whether binding was seen depends on the method and setting. Some binding calls cover weakened binding; strength is not graded here.

Consider “flag-tagged Smarca4 (from UniProt Q3TKT4 1-1613)”, for which the binding entry is recorded as “binds”.

The values are drawn from publication doi:10.1101/2020.09.22.307215.
